Data: PubChem BioAssay AID2685 (National Center for Advancing Translational Sciences (NCATS), 2010)
Some of the results follow. Shown are side measurements of this screen, not its main read-out; they come without a call. Compounds called inactive in the main read-out are mostly missing here. The note in brackets gives the kind of curve behind each potency; many fits are weak.

Experiment: qHTS Assay for Lipid Storage Modulators in Drosophila S3 Cells;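 as to cell number change: cells counted by Cell Tracker Red CMTPX staining in the red channel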
Conditions: BODIPY lipid droplet fluorescence, 18-24 h; for cell number change: measured here: cell count max response, cells fed with added oleic acid
Summary of the method: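 Drosophila S3 cells loaded with oleic acid (400 uM, as added) and compounds at several concentrations; lipid droplets imaged by 488-nm laser-scanning cytometry, 500–530 nm intensity and object ratio to cell channel. Percent activity normalized to 20 uM Triacsin C.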

[1] = measured here: cell number channel AC50, cells fed with added oleic acid
[2] = measured here: lipid fluorescence (Fed channel) AC50, cells fed with added oleic acid

| SMILES | cell number change | AC50 [1] | AC50 [2] |
| --- | --- | --- | --- |
| C=CC(=O)Nc1sc2c(c1C(N)=O)CCCC2 | -45.9% | 9.2 µM [falling, partial curve] | 14.6 µM [falling, partial curve] |
| CCCCCCc1ccc(OC(=O)c2ccncc2)cc1 | -20.9% | – | – |
| COc1cccc(C(=O)COC(=O)c2ccc(NC(C)=O)cc2)c1 | 20.2% | 6.51 µM [falling, single point] | 4.61 µM [falling, full curve] |
| O=C(Nc1nccs1)c1nc[nH]c1C(=O)NCc1ccccc1 | 0.339% | – | 20.6 µM [rising, single point] |
| CN(C)CCCN(C(=O)C1COc2ccccc2O1)c1nc2cc3c(cc2s1)OCO3 (stereo unspecified) | 3.66% | – | – |
| CC1(C)OC(C)(C)/C(=C/Nc2ccc(O)cc2)C1=O | -8.2% | – | 32.6 µM [falling, single point] |
| COc1ccc(N2C(=O)CSC2c2ccccc2F)c(OC)c1 (stereo unspecified) | -14.1% | – | 29.1 µM [falling, single point] |
| Cc1cc(C)c(NC(=O)c2c[nH]c(=S)n2-c2ccc(F)cc2)c(C)c1 | -6.43% | – | 2.06 µM [falling, single point] |
| O=C1C=C(N(CCO)CCO)C2(CCCCC2)O1 | -23.9% | 1.64 µM [falling, full curve, poor fit] | 3.66 µM [falling, full curve] |
| O=C(CSc1nccn1Cc1ccco1)Nc1ccccc1F | 33.7% | 11.2 µM [rising, partial curve, poor fit] | 3.98 µM [rising, full curve, poor fit] |
| CC1(NC(=O)CC(c2ccccc2)(c2ccccc2)c2ccccc2)CCN(CCCc2ccccc2)C1=O (stereo unspecified) | -61.7% | 29.1 µM [falling, single point] | – |
| CCOC(=O)c1c(CN2CCCCC2)n(C)c2ccc(OC)c(S(=O)(=O)c3ccccc3)c12 | -15.7% | – | – |
| CC(Nc1nc(N2CCCC2)nc2ccccc12)c1ccccc1 (stereo unspecified) | – | 1.84 µM [rising, partial curve] | 0.411 µM [rising, full curve] |
| Cc1ccc(C(=O)Nc2nnc(-c3ccco3)o2)cc1C | -11% | – | 10.3 µM [falling, partial curve] |
| O=c1cc(NC2CCCCC2)c2ccccc2o1 | 12.9% | – | 29.1 µM [rising, single point] |
| CC(=O)n1nc(-c2ccccc2)nc1NCc1ccc(F)cc1 | -13.2% | – | – |
| Cc1cc([N+](=O)[O-])ccc1NC(=S)NC(=O)Cc1ccccc1 | -6.62% | – | – |
| FC(F)(F)c1ccc(-c2nc(=S)[nH][nH]2)cc1 | -50% | 0.164 µM [falling, full curve, poor fit] | – |
| COc1ccc(S(=O)(=O)NCc2ccc3c(c2)OCO3)cc1C | 40.1% | 29.1 µM [rising, single point] | 29.1 µM [rising, single point] |
| COc1cc2c(cc1NC(=O)CN(C)Cc1nc3ccccc3c(=O)[nH]1)oc1ccccc12 | -19.9% | – | – |
| CCOc1ccc(NC(=O)C2CCCN2S(=O)(=O)c2ccc(OCC)cc2)cc1 (stereo unspecified) | – | – | 0.731 µM [falling, full curve] |

| SMILES | cell number change | AC50 [1] | AC50 [2] |
| --- | --- | --- | --- |
| O=C(Nc1ccc(N2CCN(C(=O)c3cccs3)CC2)cc1)c1ccccc1Cl | -4.5% | – | – |
| O=[N+]([O-])c1cccc(COc2ncnc3cc([N+](=O)[O-])ccc23)c1 | 12% | 0.00461 µM [rising, full curve, poor fit] | – |
| CCCCOC(=O)Nc1nc(C)c(C(=O)OCC)s1 | – | – | 2.59 µM [rising, partial curve] |
| CC(C)CCNC(=O)C1CCCN(S(=O)(=O)c2ccc3c(c2)CC(C)N3C(=O)C2CC2)C1 (stereo unspecified) | 13.1% | – | 29.1 µM [rising, single point] |
| CCOC(=O)c1ccc(NC(=O)Nc2ncccc2C)cc1 | 18% | – | – |
| Cc1cccn2c(CNCC3OCCc4ccccc43)c(C(=O)N3CCCCC3)nc12 (stereo unspecified) | 31.3% | 0.517 µM [rising, partial curve, poor fit] | 18.4 µM [rising, partial curve, poor fit] |
| Cc1cc(C)cc(OCC(=O)N(Cc2ccco2)c2c(N)n(Cc3ccccc3)c(=O)[nH]c2=O)c1 | -2.74% | – | 0.00461 µM [rising, full curve, poor fit] |
| CC(C)NC(=S)NNC(=O)C12CC3CC(CC(C3)C1)C2 | – | 0.184 µM [falling, full curve] | – |
| CC(NC(=O)c1cc(-c2cccnc2)nc2ccc(Br)cc12)C1CCCO1 (stereo unspecified) | -26.4% | – | – |
| Cc1ccc(C)c(NC(=O)C2CC3c4ccccc4C2c2ccccc23)c1 (stereo unspecified) | – | – | 3.66 µM [falling, partial curve] |
| Cc1ccccc1NC(=O)N1CCCC(c2nc(-c3ccc(C(C)C)cc3)no2)C1 (stereo unspecified) | -18.5% | 1.64 µM [rising, partial curve] | 2.06 µM [rising, partial curve] |
| Cc1cccc(-[n+]2c(-c3cccc(Br)c3)[nH]c3nc4ccccc4nc32)c1 | 15.5% | 4.61 µM [rising, partial curve] | 5.17 µM [rising, single point] |
| COc1ccc(N2CCn3c2nc2c3c(=O)n(CCc3ccccc3)c(=O)n2C)c(OC)c1 | 3.96% | 0.00731 µM [rising, full curve] | 0.259 µM [rising, partial curve, poor fit] |
| CCOC(=O)N1CCN(C(=O)c2cccc(S(=O)(=O)Nc3ccc(Br)cc3)c2)CC1 | -25% | – | – |
| Cc1ccccc1OCC(O)Cn1c(NCc2ccco2)nc2c1c(=O)n(C)c(=O)n2C (stereo unspecified) | -30.9% | 16.4 µM [falling, partial curve, poor fit] | 29.1 µM [falling, single point] |
| Cc1ccc(CNC(=O)COC(=O)c2ccc(S(=O)(=O)N(C)C)cc2)cc1 | 18.7% | 2.91 µM [rising, single point] | 2.06 µM [rising, single point] |
| Cc1onc(-c2ccccc2)c1C(=O)Nc1nc(-c2ccccc2)cs1 | 16.6% | – | – |
| Cc1ccc(CSc2ccc(-c3ccco3)nn2)cc1 | -7.22% | – | 0.82 µM [rising, single point] |
| Cc1cc(Cl)c(S(=O)(=O)NCc2cccnc2)cc1OCC(N)=O | – | 3.26 µM [rising, single point] | 4.11 µM [rising, partial curve] |
| N#C/C(C(=S)Nc1ccccc1)=C1/NN=C(N2CCOCC2)N1c1ccccc1 | 39.5% | 14.6 µM [rising, single point] | – |
| CC(C)(C#N)NC(=O)C1CCCN1S(=O)(=O)c1ccc2ccccc2c1 (stereo unspecified) | 15.1% | – | 6.51 µM [falling, single point] |

An excerpt from above in order of count of non-hydrogen atoms, ascending:

| SMILES | cell number change | AC50 [1] | AC50 [2] |
| --- | --- | --- | --- |
| Cc1ccccc1NC(=O)N1CCCC(c2nc(-c3ccc(C(C)C)cc3)no2)C1 (stereo unspecified) | -18.5% | 1.64 µM [rising, partial curve] | 2.06 µM [rising, partial curve] |
| Cc1ccccc1OCC(O)Cn1c(NCc2ccco2)nc2c1c(=O)n(C)c(=O)n2C (stereo unspecified) | -30.9% | 16.4 µM [falling, partial curve, poor fit] | 29.1 µM [falling, single point] |
| CC1(NC(=O)CC(c2ccccc2)(c2ccccc2)c2ccccc2)CCN(CCCc2ccccc2)C1=O (stereo unspecified) | -61.7% | 29.1 µM [falling, single point] | – |

(further entries)

| SMILES | cell number change | AC50 [1] | AC50 [2] |
| --- | --- | --- | --- |
| CCN1C(=O)CC(n2c(C)nc3ccccc32)C1=O (stereo unspecified) | -12% | – | – |
| O=C(CCn1ccnc1)Nc1nc2ccccc2[nH]1 | – | 0.146 µM [rising, full curve, poor fit] | 0.517 µM [rising, single point] |
| Cc1ccc(C(=O)NCC(=O)OCc2csc(-c3ccccc3)n2)cc1 | -22.2% | 0.326 µM [falling, full curve, poor fit] | – |
| CCOC(=O)c1c(NC(=O)c2ccc(Br)o2)sc2c1CCCC2 | 9.03% | 0.58 µM [falling, full curve, poor fit] | 0.146 µM [rising, full curve, poor fit] |
| COc1ccc(C(=O)/C=C/c2ccc(OC)c(CN3CCOCC3)c2)cc1 | -25.7% | – | 20.6 µM [falling, single point] |
| O=S1(=O)Nc2c(ccc3cccnc23)-c2ccccc21 | -21.8% | – | 16.4 µM [falling, single point] |
| COc1ccc(-c2[nH]ncc2/C=N\NS(=O)(=O)c2ccccc2)cc1OC | 133% | – | – |
| Cc1ccc(-c2csc(-c3c[nH]c4ccccc34)n2)c(C)c1 | -37% | 13 µM [falling, partial curve] | 1.3 µM [rising, full curve] |
| COC(=O)c1ccc(OC(=O)c2ccc(OC)cc2)c(OC)c1 | 8.51% | – | – |
| CCCCN(NC(C)=O)c1nc(Cl)nc(NC(C)C)n1 | -0.804% | 0.0206 µM [falling, full curve, poor fit] | – |
| COc1ccc(-c2ccc3c(c2)S(=O)(=O)c2cccc(C(=O)NC4CC4)c2C3=O)cc1OC | -39.8% | 2.06 µM [falling, partial curve] | – |
| Cc1n[nH]c(=O)nc1NCC1CCCO1 (stereo unspecified) | -0.853% | – | – |
| C=CCn1c(=S)[nH]c2scc(-c3ccc(C)o3)c2c1=O | -7.08% | – | 0.116 µM [falling, full curve, poor fit] |
| O=C(O)c1ccccc1C(=O)NCCc1c(C(=O)O)[nH]c2ccc(Cl)cc12 | 15.7% | – | 0.82 µM [rising, full curve] |
| CCC(=O)Nc1nc(OC)cc(OC)n1 | 8.83% | – | 0.517 µM [falling, full curve, poor fit] |
| COc1ccc(CC(=O)Oc2ccc(F)cc2)cc1 | 6.88% | – | 0.092 µM [rising, full curve, poor fit] |
| Cc1ccc(S(=O)(=O)Nc2ccc3c(c2)CCC3)cc1 | -45.2% | 23.1 µM [falling, partial curve] | 25.9 µM [falling, partial curve] |
| COc1ccccc1NS(=O)(=O)c1ccc(O)c(C(=O)OCC(=O)c2ccc(Cl)cc2Cl)c1 | -1.89% | – | – |
| COc1ccc(CCNCC(=O)Nc2ccc(OC(F)F)cc2)cc1 | -3.17% | – | 29.1 µM [rising, single point] |
